The list shows a part of the results.
target: T1, OsSMF1 (Oryza sativa, UniProt Q6ZLB0 1-436); assay: protein-binding microarray (RPBM); PBS, 2% BSA, 51.3 ng/ul salmon testes DNA, 50 uM zinc acetate, 200 nM TF, 25 C, 1 h; high values mean tight binding; details: protein: recombinant; tags: N-terminal polyhistidine and DsRed monomer fusion (pET32a); chain copies: 2; label: CyDye5-dUTP incorporated in the synthesized complementary strand; 3' TTTTT single-stranded linker to array surface; dsDNA, one strand shown
T1 sequence: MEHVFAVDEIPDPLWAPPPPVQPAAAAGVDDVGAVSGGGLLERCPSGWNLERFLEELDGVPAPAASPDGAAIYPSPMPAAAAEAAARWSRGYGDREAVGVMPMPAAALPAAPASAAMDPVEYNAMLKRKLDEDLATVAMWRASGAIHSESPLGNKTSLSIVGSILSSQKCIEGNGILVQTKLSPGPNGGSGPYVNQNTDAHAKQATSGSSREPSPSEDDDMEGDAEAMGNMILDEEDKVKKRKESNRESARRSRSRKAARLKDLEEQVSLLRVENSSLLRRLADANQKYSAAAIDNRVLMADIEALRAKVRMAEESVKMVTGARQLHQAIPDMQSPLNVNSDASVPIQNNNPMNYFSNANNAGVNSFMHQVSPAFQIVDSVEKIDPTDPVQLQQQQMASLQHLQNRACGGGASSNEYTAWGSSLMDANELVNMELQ
Outline: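 Ni–NTA purification followed expression in E. coli BL21-CodonPlus of transcription factors fused N-terminally to a polyhistidine tag and DsRed. At 200 nM in PBS with 2% BSA, salmon testes DNA and 50 µM zinc acetate, the protein was incubated for 1 h at 25 °C with a custom Agilent array that had been primer-extended with Cy5-dUTP and blocked with 2% BSA. After washing, the array was read on an Axon 4000B scanner. The binding signal is per-feature fluorescence intensity in arbitrary units.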

Row | Sequence | binding signal
1 | TTTACGTAAGCGGTGACGAAGCAAGTGCCCATGTTCCGGGCGGAGTCACCTAGTGCAG | 6110 fluorescence intensity (a.u.)
2 | TAGGAGGAGAGAGAACGGGAGGAGATGGGGTAGGAAGGGGCGGAGTCACCTAGTGCAG | 3610 fluorescence intensity (a.u.)
3 | CCGCACCACCACGCGCCGACACGTGGCTGCCGACCTGATGCGGAGTCACCTAGTGCAG | 12500 fluorescence intensity (a.u.)
4 | GGTGGTGGCAAGCCCTGCTGATCTCATCAAGGTAAGGATGCGGAGTCACCTAGTGCAG | 4360 fluorescence intensity (a.u.)
5 | TTGTTAATTACCGCGATTGATGTCGAGCTTGCATTTTGATCGGAGTCACCTAGTGCAG | 3540 fluorescence intensity (a.u.)
6 | ACGCGAGGGACTGTGAGAGCTCACTGGGGTGTCGCCGTGTCGGAGTCACCTAGTGCAG | 3580 fluorescence intensity (a.u.)
7 | AATCAACAAATAACTAATATTCTTACATCAGCTACTATAACGGAGTCACCTAGTGCAG | 28600 fluorescence intensity (a.u.)
8 | TTCTAACCATCCCCTCCTGCTAATAGGTGAATTCCCCGTGCGGAGTCACCTAGTGCAG | 3830 fluorescence intensity (a.u.)
9 | TGAGTATAGAATCCATATAGAAATTTAAAACTAACTAAAACGGAGTCACCTAGTGCAG | 3860 fluorescence intensity (a.u.)
10 | ACGCGGGCACGGGGCCCACTGCCGACGTGCCAATCCTGGACGGAGTCACCTAGTGCAG | 6960 fluorescence intensity (a.u.)
11 | CATAGTGGATCTGGAGCTTATCTGCAATGATAAGACAATGCGGAGTCACCTAGTGCAG | 3140 fluorescence intensity (a.u.)
12 | CTTCGCTGTTTTGACACTCCGTGTGGATGACAAATGGACCCGGAGTCACCTAGTGCAG | 3750 fluorescence intensity (a.u.)
13 | GCCTGTAGCCTGGTGGTTACAAGAGCCTCAGTAGCACCTGCGGAGTCACCTAGTGCAG | 3250 fluorescence intensity (a.u.)
14 | ACTACCATGTGTACGTCACGTAGGACCAAAATCGCTCCGGCGGAGTCACCTAGTGCAG | 7660 fluorescence intensity (a.u.)
15 | GGGACGGAGCAGTACGTTGTAGCATCATGCCATGTCGGCACGGAGTCACCTAGTGCAG | 6520 fluorescence intensity (a.u.)
16 | GGGGACGGGGAACGCGGCGGTGTGGATGGGGACGGTAGCGCGGAGTCACCTAGTGCAG | 4050 fluorescence intensity (a.u.)
17 | GGATATTGTCGAGAAGGTCCCCGACACTTGGACCGTGACGCGGAGTCACCTAGTGCAG | 3210 fluorescence intensity (a.u.)
18 | CTAGATACCATACTAACATCATGATGATGTCGACAAACATCGGAGTCACCTAGTGCAG | 3500 fluorescence intensity (a.u.)
19 | TGCCATCTTGACCCACATGTCATTGGGTTCTATATGCCATCGGAGTCACCTAGTGCAG | 3290 fluorescence intensity (a.u.)
20 | CTTCACTGCATCCAGCTCCACGCCCACGAACCTGTTGGTGCGGAGTCACCTAGTGCAG | 3820 fluorescence intensity (a.u.)
21 | CACCTTCTGTTGCATAAAGACAATGATCACTGACATCAGGCGGAGTCACCTAGTGCAG | 3480 fluorescence intensity (a.u.)

Row | Sequence | binding signal
22 | CTAGCAGACACTCTGTTCTGCTAAATATACCACACACACACGGAGTCACCTAGTGCAG | 3550 fluorescence intensity (a.u.)
23 | AGCTAGCTAGCTAACTAGTAAGGAGGTACACGTAGGTAGCCGGAGTCACCTAGTGCAG | 6960 fluorescence intensity (a.u.)
24 | TTCTCAGCCAGCGTCATCGTCAAACGGACGTTGGTAGGCCCGGAGTCACCTAGTGCAG | 3610 fluorescence intensity (a.u.)
25 | CGCGCGCGCCCGGCGTCCACGTGTATATATAACCCGCCACCGGAGTCACCTAGTGCAG | 9940 fluorescence intensity (a.u.)
26 | TGCAACCACAGGCGAAGCCACGTCGGGCGTGTCAAATTGTCGGAGTCACCTAGTGCAG | 8970 fluorescence intensity (a.u.)
27 | AGAAGTTGAATTTTGATATATTTTATATTAATCTGTGTTGCGGAGTCACCTAGTGCAG | 17800 fluorescence intensity (a.u.)
28 | TTGAAACTGTGCATGCGCATCACCTTCATGCCCAAAATTTCGGAGTCACCTAGTGCAG | 3160 fluorescence intensity (a.u.)
29 | TTCTCGCGGCGGTGGCGGAACGGTCACTTCTCTTCTTCACCGGAGTCACCTAGTGCAG | 4330 fluorescence intensity (a.u.)
30 | TTCTGGTTCTTGGACTCCCTGTTCTTGGTTCCTGCATTTCCGGAGTCACCTAGTGCAG | 4060 fluorescence intensity (a.u.)
31 | CACGTGGGCCCCACCACCCCTGGCCCCACGTGTCAGCGAGCGGAGTCACCTAGTGCAG | 10700 fluorescence intensity (a.u.)
32 | TTAAGGTAATGAGCCCTATCTGATGTCAGTGGGGATTGTTCGGAGTCACCTAGTGCAG | 7560 fluorescence intensity (a.u.)
33 | TCCAGGTGGGAAGAGTTGTTGGTGTGTCAGGTTGTCCAATCGGAGTCACCTAGTGCAG | 4160 fluorescence intensity (a.u.)
34 | GCAGTCTTGTAGTCTCGTGCACCAATCGTCGCGCCGCGGCCGGAGTCACCTAGTGCAG | 22300 fluorescence intensity (a.u.)
35 | CTTCTCTTCGACCACGCGAACACCTATCCATTCTGTGAGGCGGAGTCACCTAGTGCAG | 3160 fluorescence intensity (a.u.)
36 | CGGTCCTTTTCTGCTTTGGTTGGTTCGCCTCTTATATCCTCGGAGTCACCTAGTGCAG | 24700 fluorescence intensity (a.u.)
37 | CGCGCCTTCGCGAGATTCCCTCGGGTTTGGGCGGGACCGTCGGAGTCACCTAGTGCAG | 3230 fluorescence intensity (a.u.)
38 | TTTCGCGGGTAAACGAGCAAAGCGGGCATGGGTAGTGATTCGGAGTCACCTAGTGCAG | 3550 fluorescence intensity (a.u.)
39 | CTCCTTAACCTGCTCCATCAGCGCACCCCACACGCACTTCCGGAGTCACCTAGTGCAG | 3490 fluorescence intensity (a.u.)
40 | ACTACACTACACAGATTTCAGCCCGGTCAGGTGATTCGTTCGGAGTCACCTAGTGCAG | 3220 fluorescence intensity (a.u.)
41 | TATGCACTCAGAATTCGTAATGTTTAAAATTGCCTGCAAACGGAGTCACCTAGTGCAG | 3150 fluorescence intensity (a.u.)
42 | ATTCCGTGGATTATACCGTTAAAGATCAGCTGATGTATTCCGGAGTCACCTAGTGCAG | 3350 fluorescence intensity (a.u.)

Already shown: entries from further up.
Row | Sequence | binding signal
19 | TGCCATCTTGACCCACATGTCATTGGGTTCTATATGCCATCGGAGTCACCTAGTGCAG | 3290 fluorescence intensity (a.u.)
20 | CTTCACTGCATCCAGCTCCACGCCCACGAACCTGTTGGTGCGGAGTCACCTAGTGCAG | 3820 fluorescence intensity (a.u.)

Source: PMC7819943, “Rice protein-binding microarrays: a tool to detect cis-acting elements near promoter regions in rice”
